Test results taken from publication PMC10163288.
The list shows a part of the results.

B1: il10ra_site1_sap_18_mot_HHH_b1_05357_000000034_0001_23_39_H_._HHH_b1_00213_0001_0000400010_0000001_0_0001 (protein)
chain: SSSSSLEQRAFELMVRAYLLANQGDPEEAEEVLKEAEEVAREGNDRALVLAIEVNLERLESSSSS
B2: il10ra_site1_sap_20_mot_b26a303360aa2756ef5b79665ce52f45_0001_000000179_0001_1_11_H_._HHH_b1_04307_0001_0000100006_0000002_0_0001_af2pred_0001 (protein)
chain: SSSSTLEEDVRSALKAAKILLERGDPEKAEEAAKQAKFLAELANNPELKEEIERLLEEIGSSSSS
B3: il10ra_site1_sap_24_mot_HHH_b1_01901_000000286_0001_1_19_H_._HHH_b1_04306_af2_0001_0000100002_0000002_0_0001 (protein)
chain: SSSSDEREIWQLMVEVYHLAQEGDPKWEELLEEVQELAEELGDPQLRELVEAAERAIRSNSSSSS
B4: il10ra_site1_normal_mot_HHH_b1_06789_af2_000000041_0001_1_20_H_._HHH_b1_08175_0001_0000200006_0000002_0_af2pred_0001 (protein)
chain: SSSSSSAETDVESAEKAVEILLKQGDEEKAEEVVRIAIESARAANSPLAELLERLLEEITSSSSS
B5: il10ra_site1_normal_mot_HHH_b1_05056_000000217_0001_1_20_H_._HHH_b2_01322_0001_0000500053_0000001_0 (protein)
chain: SSSSDEEEFARIVQEVVRLAIRLSDPEALQEVWELVRRYFREGDPRILEELEELLEELEKSSSSS
B6: il10ra_site1_normal_mot_HHH_b1_06363_000000103_0001_21_38_H_._HHH_b2_01051_0001_0000400032_0000001_0_af2pred_0001 (protein)
chain: SSSSSDEHREEVEELLEEAKKIDDDKERWQVLLEAFHIAFENNDEELEEEVKEVAIKLVASSSSS
B7: il10ra_site1_normal_mot_HHH_b1_06341_af2_000000167_0001_17_35_H_._HHH_b1_03523_0001_0000100001_0000002_0 (protein)
chain: SSSSDREEITEKLEEELQELLENNDHERFLRLLEEMARIAIRLRDPELSRIIIKLAREFASSSSS
B8: il10ra_site1_normal_mot_HHH_b2_00475_000000107_0001_44_57_H_._HHH_b1_01897_af2_0001_0000400025_0000001_0 (protein)
chain: SSSSSQEVAQILFEAIHRLFEGNPEEARKLAEEAEEVAQELGDPELERYVRIALHFIEAHSSSSS
B9: il10ra_site1_sap_20_mot_HHH_b2_04327_000000030_0001_41_55_H_._HHH_b2_04747_af2_0001_0000800037_0000002_0_0001 (protein)
chain: SSSSSSEEIYRLLRRAMELRDNGDHEEARELLERAERLAEENNSPVMRVAVRYALEVVEESSSSS
B10: il10ra_site1_sap_16_mot_HHH_b2_00984_000000042_0001_1_20_H_._4c4ac6cabe4c261757e68d3976ab26f5_0001_af2_0001_0000600027_0000001_0_0001 (protein)
chain: SSSSDEDEEYIRMTLEFAKWLIEEGDERAARHFLRAAIELAERLNDEEILEELERLLQELSSSSS
B11: il10ra_site1_sap_21_mot_HHH_b2_00730_000000084_0001_1_16_H_._HHH_b1_07822_0001_0000100001_0000002_0_0001_af2pred_0001 (protein)
chain: SSSSSISERILELLREALELINRGDPEEAEEVLEEAQRLAEEAGNEVFRWAVESLLKRLKSSSSS
B12: il10ra_site1_sap_22_mot_HHH_b1_02665_000000293_0001_1_18_H_._HHH_b1_08591_af2_0001_0000500011_0000001_0_0001 (protein)
chain: SSSSSEEVEELLEEARELLEKGNPEEAIEVLARAVRFALRLGDEELLQLVWELVREVAETSSSSS
B13: il10ra_site1_sap_26_mot_HHH_b1_01082_af2_000000031_0001_3_19_H_._HHH_b2_01541_af2_0001_0000500046_0000001_0_0001 (protein)
chain: SSSSNLEELVRAALRLAEQAVKWGDPRAAELLLKALLEALERNNDPELVREVEELLEEIRGSSSS
B14: il10ra_site1_sap_19_mot_HHH_b1_03900_000000129_0001_1_16_H_._HHH_b2_05682_0001_0000300033_0000001_1_0001 (protein)
chain: SSSSDTEEYAEEVAEQLRELAEEGDREEFARLMLEALQFVIERTNAEALRILWRVVKELASSSSS
B15: il10ra_site1_normal_mot_HHH_b1_02809_af2_000000277_0001_40_57_H_._HHH_b2_02247_af2_0001_0000100005_0000002_0_af2pred_0001 (protein)
chain: SSSSDEAEKAIRILLQAAKRLEEQGNEEFAKLALRDALAAAKAINDEELFKEVRRLLEELNSSSS
B16: il10ra_site1_normal_mot_HHH_b1_00666_000000226_0001_43_56_H_._HHH_b1_07038_0001_0000200019_0000001_0 (protein)
chain: SSSSDIEEEIERLIEEARELLEEGDPEEANRVLQRAVQLAFRASNEELLEEIWRLALESASSSSS
B17: il10ra_site1_normal_mot_e1dd4851c59bc1cdde016f988f6856bd_0001_1_000000200_0001_16_31_H_._HEEHE_1920_af2_0001_0000800009_0000001_0_af2pred_dldesign_0_af2pred (protein)
chain: SKVEKLRLALDYLAEKLNVPKVVVEEVDGKVVVTITGTSPAAEALARAAEYVADSLGLEVEVRIV
B18: il10ra_site1_normal_mot_HHH_b2_02116_af2_000000165_0001_41_55_H_._ems_3hC_506_0001_0000700023_0000001_0_af2pred_0001 (protein)
chain: SSTAAEVAKRVLEERFEEAEENNDKEALRQIALLARAAARLFRDPELEKFAEELKRLAEELDSSS
B19: il10ra_site1_normal_mot_HHH_b1_07743_af2_000000164_0001_42_55_H_._HHH_b2_01433_0001_0000200017_0000001_0 (protein)
chain: SSSSSEEARRVAELNVEADELALRGNPEEAREVLEEAREIAEEAGNDILRAQVESARRLVESSSS
B20: il10ra_site1_sap_13_mot_HHH_b1_03574_000000194_0001_1_18_H_._HHH_b2_00707_0001_0000100003_0000002_0_0001 (protein)
chain: SSSSDKEVHQIAFEALVRAQRLADRGDPEEAQRLLEELVEELEELGNPRLAEAARVAIEWFSSSS
B21: il10ra_site1_sap_21_mot_HHH_b1_01879_000000050_0001_1_18_H_._HHH_b1_04482_0001_0000100001_0000001_0_0001 (protein)
chain: SSSSDEVEELFEQLKELAEELNDRATEFLAKQALKAYRLSGDELVEEALRNLVRLLEERLNSSSS
B22: il10ra_site1_sap_16_mot_HHH_b1_04905_af2_000000228_0001_1_17_H_._d19391ccd5e4f9f9722e25c964c800ff_0001_af2_0001_0000700028_0000001_0_0001 (protein)
chain: SSSSDEAYEIAEEAIERAIKLLRNGNPEEAEELLREAIELVEELGNWAAVWALRHLLRLVSSSSS
B23: il10ra_site1_normal_mot_8756ee2cf497b5429c717dfc0c0bcfd6_0001_000000186_0001_1_13_H_._HHH_b1_08028_0001_0000200020_0000001_1_af2pred_0001 (protein)
chain: SSSSSSTEEVARLSEEALELAQKDPEEAREVLERAREIAEELGNAVLEAIIRFLEELIERDSSSS
B24: il10ra_site1_normal_mot_HHH_b2_00984_000000042_0001_1_20_H_._HHH_b2_03422_0001_0000100005_0000001_0 (protein)
chain: SSSSDEEVQEEVERLLEEAEHIEDPKELNRVLLEALQLAIQAQDEELLQLVWEVIKKLAENSSSS

molecular target: il10ra, Q13651; assay: yeast display titration

Apparent Kd, inactive:
B1 no binding seen
B2 no binding seen
B3 no binding seen
B4 no binding seen
B5 no binding seen
B6 no binding seen
B7 no binding seen
B8 no binding seen
B9 no binding seen
B10 no binding seen
B11 no binding seen
B12 no binding seen
B13 no binding seen
B14 no binding seen
B15 no binding seen
B16 no binding seen
B17 no binding seen
B18 no binding seen
B19 no binding seen
B20 no binding seen
B21 no binding seen
B22 no binding seen
B23 no binding seen
B24 no binding seen

For convenience, part of the list above:
Apparent Kd, inactive:
B7 no binding seen
B8 no binding seen
